Measured values taken from the supplement of paper PMC10032668.
± gives the standard deviation of the averaged measurements. The list shows a part of the results. Only hits are listed; about a third recur on repeated control peptides.

Protein sequences, listed by entry. Tags and fused reporters are not part of them.
AP2A2, O94973, UniProt O94973, whole entry: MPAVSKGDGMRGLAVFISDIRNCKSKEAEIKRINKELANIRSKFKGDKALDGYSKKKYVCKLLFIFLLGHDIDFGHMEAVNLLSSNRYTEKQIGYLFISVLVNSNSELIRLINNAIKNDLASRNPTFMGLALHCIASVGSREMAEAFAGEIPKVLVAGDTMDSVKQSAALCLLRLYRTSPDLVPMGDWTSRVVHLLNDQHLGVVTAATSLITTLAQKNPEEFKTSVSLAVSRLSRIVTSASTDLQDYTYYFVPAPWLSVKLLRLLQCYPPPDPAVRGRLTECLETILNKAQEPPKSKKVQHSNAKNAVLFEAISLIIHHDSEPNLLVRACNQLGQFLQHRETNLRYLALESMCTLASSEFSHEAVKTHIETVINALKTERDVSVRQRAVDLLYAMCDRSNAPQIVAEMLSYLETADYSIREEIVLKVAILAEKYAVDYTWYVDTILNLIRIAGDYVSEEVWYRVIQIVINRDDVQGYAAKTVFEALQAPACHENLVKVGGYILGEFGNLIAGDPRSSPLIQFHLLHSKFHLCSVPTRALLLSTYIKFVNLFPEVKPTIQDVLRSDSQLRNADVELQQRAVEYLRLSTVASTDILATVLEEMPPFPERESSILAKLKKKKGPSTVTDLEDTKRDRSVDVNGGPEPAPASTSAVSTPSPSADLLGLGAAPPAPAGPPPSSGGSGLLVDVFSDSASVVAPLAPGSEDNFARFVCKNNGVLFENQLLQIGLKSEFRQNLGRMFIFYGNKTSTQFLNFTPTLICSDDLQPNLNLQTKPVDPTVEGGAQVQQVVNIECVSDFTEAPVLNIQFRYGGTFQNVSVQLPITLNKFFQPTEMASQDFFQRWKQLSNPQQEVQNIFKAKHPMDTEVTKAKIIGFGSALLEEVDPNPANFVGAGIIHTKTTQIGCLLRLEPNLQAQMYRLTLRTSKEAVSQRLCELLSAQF
CRIPT, Q9P021, UniProt Q9P021, whole entry: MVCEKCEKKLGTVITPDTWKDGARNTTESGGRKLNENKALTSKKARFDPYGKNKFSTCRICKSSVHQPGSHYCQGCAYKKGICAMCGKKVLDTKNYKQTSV
EEF1A2, Q05639, UniProt Q05639, whole entry: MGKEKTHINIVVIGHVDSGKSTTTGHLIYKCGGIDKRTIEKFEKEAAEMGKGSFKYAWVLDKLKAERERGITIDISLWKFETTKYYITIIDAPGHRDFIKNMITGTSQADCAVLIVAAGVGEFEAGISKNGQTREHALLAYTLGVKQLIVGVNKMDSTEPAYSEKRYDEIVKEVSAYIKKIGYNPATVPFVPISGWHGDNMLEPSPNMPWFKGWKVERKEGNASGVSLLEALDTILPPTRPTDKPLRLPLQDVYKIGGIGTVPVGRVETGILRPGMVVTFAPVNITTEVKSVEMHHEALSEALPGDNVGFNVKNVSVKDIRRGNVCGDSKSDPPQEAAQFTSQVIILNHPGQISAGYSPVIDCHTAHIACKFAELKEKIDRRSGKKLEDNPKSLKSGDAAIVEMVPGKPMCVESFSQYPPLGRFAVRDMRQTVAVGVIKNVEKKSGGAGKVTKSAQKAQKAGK
EIF1, P41567, UniProt P41567, whole entry: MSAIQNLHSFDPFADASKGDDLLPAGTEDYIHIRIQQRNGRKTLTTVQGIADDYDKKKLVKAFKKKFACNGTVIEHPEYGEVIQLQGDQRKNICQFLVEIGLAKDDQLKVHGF
H1F0, P07305, UniProt P07305, whole entry: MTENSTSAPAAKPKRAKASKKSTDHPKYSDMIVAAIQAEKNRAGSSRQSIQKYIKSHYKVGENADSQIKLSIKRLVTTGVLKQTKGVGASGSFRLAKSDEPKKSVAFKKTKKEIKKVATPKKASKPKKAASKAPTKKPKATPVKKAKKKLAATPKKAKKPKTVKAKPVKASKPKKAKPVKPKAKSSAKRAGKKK
HIST1H1C, P16403, UniProt P16403, whole entry: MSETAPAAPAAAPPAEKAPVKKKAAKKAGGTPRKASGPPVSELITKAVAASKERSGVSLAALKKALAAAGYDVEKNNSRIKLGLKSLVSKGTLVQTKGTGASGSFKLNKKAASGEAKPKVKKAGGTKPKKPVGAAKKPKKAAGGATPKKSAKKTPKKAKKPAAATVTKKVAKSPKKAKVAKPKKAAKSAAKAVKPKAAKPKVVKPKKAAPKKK
HIST1H1D, P16402, UniProt P16402, whole entry: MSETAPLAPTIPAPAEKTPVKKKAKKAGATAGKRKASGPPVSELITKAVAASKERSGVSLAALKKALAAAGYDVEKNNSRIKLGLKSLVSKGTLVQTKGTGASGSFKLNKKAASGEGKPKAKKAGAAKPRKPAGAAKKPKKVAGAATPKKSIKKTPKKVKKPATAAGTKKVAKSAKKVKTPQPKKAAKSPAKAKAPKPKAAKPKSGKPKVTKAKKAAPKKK
KHDRBS1, Q07666, UniProt Q07666, whole entry: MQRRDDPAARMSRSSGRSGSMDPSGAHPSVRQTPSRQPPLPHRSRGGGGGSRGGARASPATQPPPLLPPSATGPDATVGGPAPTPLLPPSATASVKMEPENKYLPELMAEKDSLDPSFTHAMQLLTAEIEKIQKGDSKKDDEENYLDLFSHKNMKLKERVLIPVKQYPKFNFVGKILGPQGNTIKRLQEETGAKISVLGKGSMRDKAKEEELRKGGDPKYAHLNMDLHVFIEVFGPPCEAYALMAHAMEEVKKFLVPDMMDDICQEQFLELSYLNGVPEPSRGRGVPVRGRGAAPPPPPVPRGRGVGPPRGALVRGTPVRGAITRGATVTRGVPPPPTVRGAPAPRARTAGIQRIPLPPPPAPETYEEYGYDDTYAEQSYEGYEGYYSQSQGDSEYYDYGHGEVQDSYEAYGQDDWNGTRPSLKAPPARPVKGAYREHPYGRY
MORF4L2, Q15014, UniProt Q15014, whole entry: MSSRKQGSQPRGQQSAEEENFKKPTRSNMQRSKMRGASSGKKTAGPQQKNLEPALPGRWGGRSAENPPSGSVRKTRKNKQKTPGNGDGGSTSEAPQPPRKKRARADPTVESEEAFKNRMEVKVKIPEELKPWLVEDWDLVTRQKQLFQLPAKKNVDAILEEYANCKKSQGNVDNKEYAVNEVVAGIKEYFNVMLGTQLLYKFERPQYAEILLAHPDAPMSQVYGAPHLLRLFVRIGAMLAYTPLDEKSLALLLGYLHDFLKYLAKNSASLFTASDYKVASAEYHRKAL
MPG, P29372, UniProt P29372, whole entry: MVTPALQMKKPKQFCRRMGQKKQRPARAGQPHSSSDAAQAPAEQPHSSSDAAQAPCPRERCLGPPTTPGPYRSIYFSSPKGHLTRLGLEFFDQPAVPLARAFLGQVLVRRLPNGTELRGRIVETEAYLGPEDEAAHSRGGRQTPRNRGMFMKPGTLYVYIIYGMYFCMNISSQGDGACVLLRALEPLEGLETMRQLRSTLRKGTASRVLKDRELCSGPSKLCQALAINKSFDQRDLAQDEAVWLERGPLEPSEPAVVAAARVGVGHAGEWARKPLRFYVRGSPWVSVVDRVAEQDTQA
PIN4, Q9Y237, UniProt Q9Y237, whole entry: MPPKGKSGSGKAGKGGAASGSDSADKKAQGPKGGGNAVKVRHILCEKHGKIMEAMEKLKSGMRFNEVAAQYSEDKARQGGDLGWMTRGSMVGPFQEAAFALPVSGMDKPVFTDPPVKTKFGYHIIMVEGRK
UBE2I, P63279, UniProt P63279, whole entry: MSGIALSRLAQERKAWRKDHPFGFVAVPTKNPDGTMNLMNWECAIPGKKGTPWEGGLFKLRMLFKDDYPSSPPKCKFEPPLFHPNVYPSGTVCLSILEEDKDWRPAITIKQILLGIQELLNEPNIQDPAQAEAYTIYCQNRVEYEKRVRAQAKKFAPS
UFM1, P61960, UniProt P61960, whole entry: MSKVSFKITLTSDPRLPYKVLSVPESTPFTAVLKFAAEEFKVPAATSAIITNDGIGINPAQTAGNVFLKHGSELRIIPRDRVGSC

Legend:
Experiment in all cases: PRISMA enrichment of interactor (LFQ) in peptide spot vs all other peptide spots (log2 fold change); higher = stronger / more specific binding of the interactor to the peptide
[1] = target: ABCE1, P61221
Protocol: (§1)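 PRISMA: 15-aa overlapping tiles (offset 8 aa) of 60 microproteins, plus SOS1/GLUT1 control peptides, were spot-synthesized on cellulose membranes in triplicate. Membranes were incubated with benzonase-treated HEK293T lysate, and bound proteins were identified by LC-MS/MS with LFQ. Enrichment is the log2 fold change of each protein in one spot versus all other spots. Only interactors passing the significance cutoff are listed.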

[2] = target: ACOT13, Q9NPJ3
Protocol: as §1

[3] = target: ALYREF, Q86V81
Protocol: as §1

[4] = target: AP2A2, O94973
Protocol: as §1

[5] = target: AP3M1, Q9Y2T2
Protocol: as §1

[6] = target: BCKDK, O14874
Protocol: as §1

[7] = target: C11orf98, E9PRG8
Protocol: as §1

[8] = target: C19orf53, Q9UNZ5
Protocol: as §1

[9] = target: C8orf33, Q9H7E9
Protocol: as §1

[10] = target: CCDC137, Q6PK04
Protocol: as §1

[11] = target: CCDC59, Q9P031
Protocol: as §1

[12] = target: CFAP20, Q9Y6A4
Protocol: as §1

[13] = target: CHID1, Q9BWS9
Protocol: as §1

[14] = target: CHTOP, Q9Y3Y2
Protocol: as §1

[15] = target: COA7, Q96BR5
Protocol: as §1

[16] = target: CRIPT, Q9P021
Protocol: as §1

[17] = target: CSNK1A1, P48729
Protocol: as §1

[18] = target: CSNK1E, P49674
Protocol: as §1

[19] = target: CXorf56, Q9H5V9
Protocol: as §1

[20] = target: DARS2, Q6PI48
Protocol: as §1

[21] = target: DDX47, Q9H0S4
Protocol: as §1

[22] = target: DDX49, Q9Y6V7
Protocol: as §1

[23] = target: DDX6, P26196
Protocol: as §1

[24] = target: DECR1, Q16698
Protocol: as §1

[25] = target: ECHS1, P30084
Protocol: as §1

[26] = target: EDF1, O60869
Protocol: as §1

[27] = target: EEF1A2, Q05639
Protocol: as §1

[28] = target: EEFSEC, P57772
Protocol: as §1

[29] = target: EHHADH, Q08426
Protocol: as §1

[30] = target: EIF1, P41567
Protocol: as §1

[31] = target: EMG1, Q92979
Protocol: as §1

[32] = target: FAM136A, Q96C01
Protocol: as §1

[33] = target: FKBP2, P26885
Protocol: as §1

[34] = target: FKBP3, Q00688
Protocol: as §1

[35] = target: GABARAPL2, P60520
Protocol: as §1

[36] = target: H1F0, P07305
Protocol: as §1

[37] = target: H1FX, Q92522
Protocol: as §1

[38] = target: HIST1H1C, P16403
Protocol: as §1

[39] = target: HIST1H1D, P16402
Protocol: as §1

[40] = target: HMGA1, P17096
Protocol: as §1

[41] = target: HMGB1, P09429
Protocol: as §1

[42] = target: HMGB2, P26583
Protocol: as §1

[43] = target: HMGB3, O15347
Protocol: as §1

[44] = target: HMGN1, P05114
Protocol: as §1

[45] = target: HMGN4, O00479
Protocol: as §1

[46] = target: HNRNPA1, P09651
Protocol: as §1

[47] = target: HNRNPA2B1, P22626
Protocol: as §1

[48] = target: HP1BP3, Q5SSJ5
Protocol: as §1

[49] = target: IBA57, Q5T440
Protocol: as §1

[50] = target: KHDRBS1, Q07666
Protocol: as §1

[51] = target: LRRC59, Q96AG4
Protocol: as §1

[52] = target: MANF, P55145
Protocol: as §1

[53] = target: MAP4, P27816
Protocol: as §1

[54] = target: MCAT, Q8IVS2
Protocol: as §1

[55] = target: MEMO1, Q9Y316
Protocol: as §1

[56] = target: MORF4L2, Q15014
Protocol: as §1

[57] = target: MPG, P29372
Protocol: as §1

[58] = target: MRPS33, Q9Y291
Protocol: as §1

[59] = target: MRRF, Q96E11
Protocol: as §1

[60] = target: NAT10, Q9H0A0
Protocol: as §1

[61] = target: NDUFAF7, Q7L592
Protocol: as §1

[62] = target: NIFK, Q9BYG3
Protocol: as §1

[63] = target: NME4, O00746
Protocol: as §1

[64] = target: NOL7, Q9UMY1
Protocol: as §1

[65] = substrate: NONO, Q15233
Protocol: as §1

[66] = target: NTHL1, P78549
Protocol: as §1

[67] = target: NUSAP1, Q9BXS6
Protocol: as §1

[68] = target: PAK1IP1, Q9NWT1
Protocol: as §1

[69] = target: PDF, Q9HBH1
Protocol: as §1

[70] = target: PHF6, Q8IWS0
Protocol: as §1

[71] = target: PIN4, Q9Y237
Protocol: as §1

[72] = target: PPAN-P2RY11
Protocol: as §1

[73] = target: RBM34, P42696
Protocol: as §1

[74] = target: RBMX, P38159
Protocol: as §1

[75] = target: RBMXL1, Q96E39
Protocol: as §1

[76] = target: REXO4, Q9GZR2
Protocol: as §1

[77] = target: RPS19BP1, Q86WX3
Protocol: as §1

[78] = target: RRP1, P56182
Protocol: as §1

[79] = target: SERF2, P84101
Protocol: as §1

[80] = target: SFPQ, P23246
Protocol: as §1

[81] = target: SGPL1, O95470
Protocol: as §1

[82] = target: SHMT2, P34897
Protocol: as §1

[83] = target: SRP14, P37108
Protocol: as §1

[84] = target: TFAM, Q00059
Protocol: as §1

[85] = target: TMA16, Q96EY4
Protocol: as §1

[86] = target: UBE2I, P63279
Protocol: as §1

[87] = target: UFC1, Q9Y3C8
Protocol: as §1

[88] = target: UFM1, P61960
Protocol: as §1

[89] = target: VRK1, Q99986
Protocol: as §1

[90] = target: ZC3H15, Q8WU90
Protocol: as §1

[91] = target: ZNF22, P17026
Protocol: as §1

[92] = target: ZNF768, Q9H5H4
Protocol: as §1

[93] = target: hCG_2014768
Protocol: as §1

YWLLEGGDSEDKEDA [CRNDE]
PRISMA enrichment of interactor (log2) [1]: 4.19
PRISMA enrichment of interactor (log2) [2]: 4.45
PRISMA enrichment of interactor (log2) [3]: 4.3 ± 0.59
PRISMA enrichment of interactor (log2) [4]: 4.14
PRISMA enrichment of interactor (log2) [5]: 3.78
PRISMA enrichment of interactor (log2) [6]: 3.91
PRISMA enrichment of interactor (log2) [7]: 4.61
PRISMA enrichment of interactor (log2) [8]: 7.79
PRISMA enrichment of interactor (log2) [9]: 4.22
PRISMA enrichment of interactor (log2) [10]: 3.98
PRISMA enrichment of interactor (log2) [11]: 3.82
PRISMA enrichment of interactor (log2) [12]: 4.15
PRISMA enrichment of interactor (log2) [13]: 4.18
PRISMA enrichment of interactor (log2) [14]: 4.13
PRISMA enrichment of interactor (log2) [15]: 3.9
PRISMA enrichment of interactor (log2) [16]: 4.83
PRISMA enrichment of interactor (log2) [17]: 5.75
PRISMA enrichment of interactor (log2) [18]: 5.04
PRISMA enrichment of interactor (log2) [19]: 5.26
PRISMA enrichment of interactor (log2) [20]: 3.7
PRISMA enrichment of interactor (log2) [21]: 4.02
PRISMA enrichment of interactor (log2) [22]: 3.87
PRISMA enrichment of interactor (log2) [23]: 4.2
PRISMA enrichment of interactor (log2) [24]: 4.27
PRISMA enrichment of interactor (log2) [25]: 8.98
PRISMA enrichment of interactor (log2) [26]: 5.55
PRISMA enrichment of interactor (log2) [27]: 5.57
PRISMA enrichment of interactor (log2) [28]: 3.8
PRISMA enrichment of interactor (log2) [29]: 4.32
PRISMA enrichment of interactor (log2) [30]: 4.57
PRISMA enrichment of interactor (log2) [31]: 4.71
PRISMA enrichment of interactor (log2) [32]: 3.62
PRISMA enrichment of interactor (log2) [33]: 5.6
PRISMA enrichment of interactor (log2) [34]: 3.78
PRISMA enrichment of interactor (log2) [35]: 4.34
PRISMA enrichment of interactor (log2) [36]: 3.9
PRISMA enrichment of interactor (log2) [37]: 5.33
PRISMA enrichment of interactor (log2) [38]: 5.32
PRISMA enrichment of interactor (log2) [39]: 6.17
PRISMA enrichment of interactor (log2) [40]: 4.08
PRISMA enrichment of interactor (log2) [41]: 5
PRISMA enrichment of interactor (log2) [42]: 6.46
PRISMA enrichment of interactor (log2) [43]: 4.03
PRISMA enrichment of interactor (log2) [44]: 3.9
PRISMA enrichment of interactor (log2) [45]: 5.46
PRISMA enrichment of interactor (log2) [46]: 3.65
PRISMA enrichment of interactor (log2) [47]: 3.23
PRISMA enrichment of interactor (log2) [48]: 4.11
PRISMA enrichment of interactor (log2) [49]: 4.85
PRISMA enrichment of interactor (log2) [50]: 5.53
PRISMA enrichment of interactor (log2) [51]: 4.18
PRISMA enrichment of interactor (log2) [52]: 4.64
PRISMA enrichment of interactor (log2) [53]: 4.77
PRISMA enrichment of interactor (log2) [54]: 3.87
PRISMA enrichment of interactor (log2) [55]: 4.61
PRISMA enrichment of interactor (log2) [56]: 4.97
PRISMA enrichment of interactor (log2) [57]: 3.98
PRISMA enrichment of interactor (log2) [58]: 3.59
PRISMA enrichment of interactor (log2) [59]: 5.16
PRISMA enrichment of interactor (log2) [60]: 3.45
PRISMA enrichment of interactor (log2) [61]: 3.44
PRISMA enrichment of interactor (log2) [62]: 4.87
PRISMA enrichment of interactor (log2) [63]: 3.76
PRISMA enrichment of interactor (log2) [64]: 3.75
PRISMA enrichment of interactor (log2) [65]: 3.23
PRISMA enrichment of interactor (log2) [66]: 3.54
PRISMA enrichment of interactor (log2) [67]: 3.57
PRISMA enrichment of interactor (log2) [68]: 3.69
PRISMA enrichment of interactor (log2) [69]: 3.49
PRISMA enrichment of interactor (log2) [70]: 3.54
PRISMA enrichment of interactor (log2) [71]: 6.83
PRISMA enrichment of interactor (log2) [72]: 3.82
PRISMA enrichment of interactor (log2) [73]: 4.33
PRISMA enrichment of interactor (log2) [74]: 4.6
PRISMA enrichment of interactor (log2) [75]: 4.37
PRISMA enrichment of interactor (log2) [76]: 4.48
PRISMA enrichment of interactor (log2) [77]: 4.06
PRISMA enrichment of interactor (log2) [78]: 4.12
PRISMA enrichment of interactor (log2) [79]: 5.57
PRISMA enrichment of interactor (log2) [80]: 4
PRISMA enrichment of interactor (log2) [81]: 3.67
PRISMA enrichment of interactor (log2) [82]: 4.61
PRISMA enrichment of interactor (log2) [83]: 4.53
PRISMA enrichment of interactor (log2) [84]: 3.98
PRISMA enrichment of interactor (log2) [85]: 3.38
PRISMA enrichment of interactor (log2) [86]: 4.02
PRISMA enrichment of interactor (log2) [87]: 3.38
PRISMA enrichment of interactor (log2) [88]: 3.7
PRISMA enrichment of interactor (log2) [89]: 4.64
PRISMA enrichment of interactor (log2) [90]: 3.59
PRISMA enrichment of interactor (log2) [91]: 3.74
PRISMA enrichment of interactor (log2) [92]: 4.62
PRISMA enrichment of interactor (log2) [93]: 5.09
